Measured values as given in publication PMC10989996.
No constants are given. Whether binding was seen depends on the method and setting. In cells and extracts the contact can be indirect. Some results given as binding are weak or reduced against the parent protein; the word gives no strength.

Chains of the proteins cited; added tags and fusions are not shown.
UniProt Q9D0L8: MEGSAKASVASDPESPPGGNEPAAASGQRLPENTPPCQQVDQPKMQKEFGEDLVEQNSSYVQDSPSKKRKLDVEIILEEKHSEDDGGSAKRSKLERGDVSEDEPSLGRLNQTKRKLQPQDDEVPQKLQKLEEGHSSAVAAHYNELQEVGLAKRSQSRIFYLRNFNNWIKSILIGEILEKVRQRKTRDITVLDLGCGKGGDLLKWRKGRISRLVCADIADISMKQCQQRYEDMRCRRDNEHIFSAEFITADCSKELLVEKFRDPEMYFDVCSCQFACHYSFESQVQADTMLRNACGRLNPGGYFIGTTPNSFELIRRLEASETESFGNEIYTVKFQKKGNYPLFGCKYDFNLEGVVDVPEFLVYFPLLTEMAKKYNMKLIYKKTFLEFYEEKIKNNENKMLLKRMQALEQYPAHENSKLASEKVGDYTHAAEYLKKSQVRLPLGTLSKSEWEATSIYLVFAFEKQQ
UniProt Q9CQY2: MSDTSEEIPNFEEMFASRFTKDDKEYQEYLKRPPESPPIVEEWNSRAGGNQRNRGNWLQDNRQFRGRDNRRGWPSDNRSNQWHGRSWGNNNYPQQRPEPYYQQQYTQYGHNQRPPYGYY

Target: RNMT (RNA guanosine N-7 cap methyltransferase) (mouse (endogenous in mouse brain)) (UniProt Q9D0L8)
Assay: co-IP; RNMT immunoprecipitated from mouse brain lysate; RAM detected by Western blot; run as a marker for the migration of RAM

binding: binds
Substance: RAM (RNMT-Activating Mini protein/RAMAC/Fam103a1) (from UniProt Q9CQY2 1-119)
